Measurements from article doi:10.1101/204172.

By UniProt entry, the sequences of proteins in these tests, tags left out. Where a name states a change or a piece, a line headed by the entry shows the natural chain unless it says otherwise.
UniProt Q923J1: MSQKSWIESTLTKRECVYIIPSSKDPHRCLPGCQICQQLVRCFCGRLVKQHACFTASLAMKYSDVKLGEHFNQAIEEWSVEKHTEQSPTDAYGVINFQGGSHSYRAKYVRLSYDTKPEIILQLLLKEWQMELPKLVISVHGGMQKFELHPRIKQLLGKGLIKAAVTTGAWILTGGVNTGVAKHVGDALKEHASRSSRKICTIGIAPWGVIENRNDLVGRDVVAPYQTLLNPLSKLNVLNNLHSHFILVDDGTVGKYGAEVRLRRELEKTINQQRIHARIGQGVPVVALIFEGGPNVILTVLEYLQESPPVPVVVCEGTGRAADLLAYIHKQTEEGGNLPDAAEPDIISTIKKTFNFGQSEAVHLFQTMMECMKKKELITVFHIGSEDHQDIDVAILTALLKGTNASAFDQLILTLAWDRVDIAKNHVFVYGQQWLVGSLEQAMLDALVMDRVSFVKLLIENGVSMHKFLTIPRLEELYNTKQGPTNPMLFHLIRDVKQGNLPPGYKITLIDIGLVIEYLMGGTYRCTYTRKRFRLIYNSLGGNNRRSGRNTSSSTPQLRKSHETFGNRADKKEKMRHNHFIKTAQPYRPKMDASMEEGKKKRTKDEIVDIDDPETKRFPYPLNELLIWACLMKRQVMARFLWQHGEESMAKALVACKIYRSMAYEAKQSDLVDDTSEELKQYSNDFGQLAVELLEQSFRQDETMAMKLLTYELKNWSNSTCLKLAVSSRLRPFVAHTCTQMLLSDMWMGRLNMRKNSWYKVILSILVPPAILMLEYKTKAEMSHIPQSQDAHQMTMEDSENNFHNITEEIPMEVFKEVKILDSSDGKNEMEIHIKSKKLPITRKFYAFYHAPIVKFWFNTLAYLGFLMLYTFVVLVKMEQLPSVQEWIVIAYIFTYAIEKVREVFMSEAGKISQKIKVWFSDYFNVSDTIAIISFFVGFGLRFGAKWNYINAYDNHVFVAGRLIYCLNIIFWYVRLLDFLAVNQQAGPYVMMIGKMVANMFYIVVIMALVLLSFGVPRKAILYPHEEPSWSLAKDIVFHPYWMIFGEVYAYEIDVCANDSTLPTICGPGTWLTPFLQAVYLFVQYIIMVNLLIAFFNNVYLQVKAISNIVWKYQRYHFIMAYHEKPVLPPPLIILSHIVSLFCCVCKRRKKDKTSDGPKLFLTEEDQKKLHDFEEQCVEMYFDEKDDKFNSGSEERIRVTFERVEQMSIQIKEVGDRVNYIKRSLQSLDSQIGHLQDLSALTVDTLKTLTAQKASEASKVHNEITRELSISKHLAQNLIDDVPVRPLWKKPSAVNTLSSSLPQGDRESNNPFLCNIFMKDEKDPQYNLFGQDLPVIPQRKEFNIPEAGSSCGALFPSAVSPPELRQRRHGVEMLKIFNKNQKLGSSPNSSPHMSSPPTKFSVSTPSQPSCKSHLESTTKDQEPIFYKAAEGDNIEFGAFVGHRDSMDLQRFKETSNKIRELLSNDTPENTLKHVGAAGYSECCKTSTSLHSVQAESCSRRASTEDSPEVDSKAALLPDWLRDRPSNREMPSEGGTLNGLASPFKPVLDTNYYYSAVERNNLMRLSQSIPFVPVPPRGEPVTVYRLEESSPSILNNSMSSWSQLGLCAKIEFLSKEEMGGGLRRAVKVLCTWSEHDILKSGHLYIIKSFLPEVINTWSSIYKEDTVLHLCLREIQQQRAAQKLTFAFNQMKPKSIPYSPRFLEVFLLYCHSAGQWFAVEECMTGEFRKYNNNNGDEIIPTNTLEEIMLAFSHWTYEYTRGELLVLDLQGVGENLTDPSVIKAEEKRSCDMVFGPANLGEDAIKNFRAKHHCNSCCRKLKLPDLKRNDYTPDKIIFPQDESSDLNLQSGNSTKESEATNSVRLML
UniProt Q8CIR4: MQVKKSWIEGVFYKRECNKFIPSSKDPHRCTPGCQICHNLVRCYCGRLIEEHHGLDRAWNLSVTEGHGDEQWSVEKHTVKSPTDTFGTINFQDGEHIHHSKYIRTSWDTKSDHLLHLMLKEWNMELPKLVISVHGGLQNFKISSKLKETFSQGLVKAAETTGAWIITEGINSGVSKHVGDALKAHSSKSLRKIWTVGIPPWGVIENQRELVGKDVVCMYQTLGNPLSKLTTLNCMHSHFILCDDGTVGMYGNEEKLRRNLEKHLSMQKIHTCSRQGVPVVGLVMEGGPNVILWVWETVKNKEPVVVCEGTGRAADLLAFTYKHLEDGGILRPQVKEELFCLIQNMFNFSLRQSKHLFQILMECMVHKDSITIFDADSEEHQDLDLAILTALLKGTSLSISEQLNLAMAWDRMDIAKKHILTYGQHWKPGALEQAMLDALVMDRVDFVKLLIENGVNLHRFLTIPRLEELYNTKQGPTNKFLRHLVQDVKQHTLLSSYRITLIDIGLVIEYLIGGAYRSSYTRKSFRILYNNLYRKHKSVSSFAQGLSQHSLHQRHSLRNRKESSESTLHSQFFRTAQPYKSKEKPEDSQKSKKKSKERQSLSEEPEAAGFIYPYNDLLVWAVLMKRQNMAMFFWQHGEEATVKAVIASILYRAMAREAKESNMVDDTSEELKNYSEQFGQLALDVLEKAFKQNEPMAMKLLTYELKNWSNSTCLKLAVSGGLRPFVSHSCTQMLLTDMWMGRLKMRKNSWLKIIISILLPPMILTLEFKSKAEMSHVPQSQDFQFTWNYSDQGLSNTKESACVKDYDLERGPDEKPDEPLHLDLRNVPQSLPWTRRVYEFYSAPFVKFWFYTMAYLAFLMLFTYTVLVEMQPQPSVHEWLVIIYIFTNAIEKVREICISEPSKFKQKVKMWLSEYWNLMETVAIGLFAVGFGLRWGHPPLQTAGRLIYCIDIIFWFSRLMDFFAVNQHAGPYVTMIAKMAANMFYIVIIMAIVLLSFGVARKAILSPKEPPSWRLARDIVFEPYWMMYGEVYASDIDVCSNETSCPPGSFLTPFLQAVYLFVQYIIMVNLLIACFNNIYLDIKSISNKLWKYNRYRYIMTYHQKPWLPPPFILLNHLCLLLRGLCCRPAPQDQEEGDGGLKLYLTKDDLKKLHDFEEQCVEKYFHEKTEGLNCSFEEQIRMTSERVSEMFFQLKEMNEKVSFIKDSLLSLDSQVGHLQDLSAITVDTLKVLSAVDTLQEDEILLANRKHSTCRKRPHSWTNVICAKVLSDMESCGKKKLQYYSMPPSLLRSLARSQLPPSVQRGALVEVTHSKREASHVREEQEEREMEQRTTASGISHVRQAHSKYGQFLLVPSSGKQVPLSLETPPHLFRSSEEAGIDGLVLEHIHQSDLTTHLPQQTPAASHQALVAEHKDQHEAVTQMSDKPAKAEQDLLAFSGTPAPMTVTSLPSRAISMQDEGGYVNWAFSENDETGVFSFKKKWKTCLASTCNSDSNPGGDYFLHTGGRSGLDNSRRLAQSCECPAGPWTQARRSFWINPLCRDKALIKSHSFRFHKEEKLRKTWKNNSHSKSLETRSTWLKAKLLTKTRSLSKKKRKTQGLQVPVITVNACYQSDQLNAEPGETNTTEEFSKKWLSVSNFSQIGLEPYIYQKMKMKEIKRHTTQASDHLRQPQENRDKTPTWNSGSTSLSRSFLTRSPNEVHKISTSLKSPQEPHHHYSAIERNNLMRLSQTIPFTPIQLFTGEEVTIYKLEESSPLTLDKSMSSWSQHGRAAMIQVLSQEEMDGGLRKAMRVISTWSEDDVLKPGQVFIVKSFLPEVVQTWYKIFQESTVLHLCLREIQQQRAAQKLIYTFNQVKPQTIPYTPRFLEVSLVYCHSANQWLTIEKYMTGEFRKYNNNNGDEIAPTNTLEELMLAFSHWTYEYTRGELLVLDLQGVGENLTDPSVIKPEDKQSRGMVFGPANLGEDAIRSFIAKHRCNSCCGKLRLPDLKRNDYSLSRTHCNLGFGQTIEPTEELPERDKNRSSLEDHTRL
UniProt P15116: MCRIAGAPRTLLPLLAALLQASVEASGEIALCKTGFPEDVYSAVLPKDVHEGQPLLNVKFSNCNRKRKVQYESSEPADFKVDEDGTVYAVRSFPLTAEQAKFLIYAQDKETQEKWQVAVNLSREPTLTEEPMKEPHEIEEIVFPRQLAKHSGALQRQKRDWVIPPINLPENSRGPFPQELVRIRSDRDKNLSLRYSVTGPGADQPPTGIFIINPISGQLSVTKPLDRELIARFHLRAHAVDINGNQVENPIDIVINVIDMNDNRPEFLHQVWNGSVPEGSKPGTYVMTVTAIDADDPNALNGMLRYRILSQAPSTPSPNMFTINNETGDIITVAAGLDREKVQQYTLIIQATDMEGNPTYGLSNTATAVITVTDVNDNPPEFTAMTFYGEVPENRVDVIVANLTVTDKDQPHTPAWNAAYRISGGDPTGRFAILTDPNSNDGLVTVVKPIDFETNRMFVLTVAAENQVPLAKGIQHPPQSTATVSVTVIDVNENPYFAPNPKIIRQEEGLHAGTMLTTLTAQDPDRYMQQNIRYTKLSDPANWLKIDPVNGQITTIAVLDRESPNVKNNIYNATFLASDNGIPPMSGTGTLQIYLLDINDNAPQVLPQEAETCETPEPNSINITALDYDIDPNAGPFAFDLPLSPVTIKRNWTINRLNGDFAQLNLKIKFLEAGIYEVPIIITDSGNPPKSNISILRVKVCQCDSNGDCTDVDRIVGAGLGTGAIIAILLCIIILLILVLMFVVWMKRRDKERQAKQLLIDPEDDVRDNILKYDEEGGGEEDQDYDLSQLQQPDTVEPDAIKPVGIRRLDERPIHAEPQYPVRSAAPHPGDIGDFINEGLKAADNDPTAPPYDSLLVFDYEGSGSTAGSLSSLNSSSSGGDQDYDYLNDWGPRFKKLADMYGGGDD

Key:
USH1C (harmonin) = biological target: T1, USH1C (harmonin) (UniProt Q9ES64); assay: two-hybrid
T1 sequence: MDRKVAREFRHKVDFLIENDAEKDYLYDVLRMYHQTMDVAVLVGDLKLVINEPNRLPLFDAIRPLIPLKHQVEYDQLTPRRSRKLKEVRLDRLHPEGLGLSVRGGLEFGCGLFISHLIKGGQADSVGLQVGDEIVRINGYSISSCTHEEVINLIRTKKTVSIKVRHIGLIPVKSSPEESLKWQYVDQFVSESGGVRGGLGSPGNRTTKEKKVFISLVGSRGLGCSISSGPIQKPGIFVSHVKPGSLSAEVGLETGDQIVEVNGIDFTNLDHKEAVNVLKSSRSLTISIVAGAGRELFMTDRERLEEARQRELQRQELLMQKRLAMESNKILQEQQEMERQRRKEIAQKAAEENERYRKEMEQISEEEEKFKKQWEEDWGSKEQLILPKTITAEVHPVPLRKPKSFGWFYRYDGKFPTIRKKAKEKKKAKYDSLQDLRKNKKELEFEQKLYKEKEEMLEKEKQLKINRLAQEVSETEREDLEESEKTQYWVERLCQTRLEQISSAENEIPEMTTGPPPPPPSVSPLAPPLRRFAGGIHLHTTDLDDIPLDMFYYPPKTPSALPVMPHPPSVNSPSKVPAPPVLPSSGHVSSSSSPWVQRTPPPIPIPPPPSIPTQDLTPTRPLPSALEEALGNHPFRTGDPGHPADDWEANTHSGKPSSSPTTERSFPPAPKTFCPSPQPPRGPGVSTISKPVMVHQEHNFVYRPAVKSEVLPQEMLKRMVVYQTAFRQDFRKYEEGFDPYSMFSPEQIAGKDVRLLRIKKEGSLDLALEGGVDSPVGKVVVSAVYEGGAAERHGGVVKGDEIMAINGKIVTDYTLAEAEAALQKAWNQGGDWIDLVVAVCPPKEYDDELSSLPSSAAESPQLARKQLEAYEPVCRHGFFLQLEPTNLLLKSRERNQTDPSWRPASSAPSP

[1] = biological target: HA-tagged TRPM7 (canonical splice form, full length) (mouse) (UniProt Q923J1); assay: co-IP
[2] = biological target: HA-tagged TRPM6 (canonical splice form, full length) (mouse) (UniProt Q8CIR4); assay: co-IP

Row | binding (USH1C (harmonin)) | binding [1] | binding [2] | Substance
1 | no binding |  |  | TRPV6, the 33 terminal amino acids with the C-terminal seven amino acids deleted (domain or fragment)
2 |  | no binding | no binding | CDH2 (N-cadherin) (from UniProt P15116)

These are yes or no findings as the source states them, for the method shown. For part of these data: Binding seen in cells or lysates may run through a third protein.
